# Laboratory results published in US20040219097A1, “Composition useful for the diagnosis, imaging and treatment of tumors” (priority 2003, published 2004).
# Test system: JJ5 Breast Cancer cells
# Assay: Binding of EGF-^111In-labeled transferrin compound to breast cancer cells (radioligand binding, kinetics, retention)
# Parameters: species or system human
# Details: over a 24 hour period at 37° C.
# Experimental: For the normal breast cell line HBL-100, 8000 EGFR/cell has been reported. The expression of EGFR in breast cancer cell lines has a reported range of 800 EGFR/cell for MCF-7 cells to 10^6 EGFR/cell for MDA-MB-468 cells. […] Utilizing the Auger electron emitter ^111In was used in the initial experiments to illustrate the utility of the invention using EGF-^111In-labeled transferrin compounds. The EGF-^111In-labeled transferrin (0.25-80 ng) was incubated with 1.5×10^6 cells/dish JJ5 Breast Cancer (prepared from BCBM JJ5) cells in 1 mL of 0.1% human serum albumin in 35 mm multiwell culture dishes at 37° C. for 30 minutes. The cells were transferred to a centrifuge tube and centrifuged. The cell pellet was separated from the supernatant and counted in a g-scintillation counter to determine bound (B) and free (F) radioactivity. Non-specific binding was determined by conducting the assay in 100 nM hEGF. […] Internalized fraction was measured by determining the proportion of radioactivity which could not be displaced from the cell surface by 100 nM hEGF. Cell-associated binding (surface-binding and intracellular accumulation) was expressed as a percentage of medium radioactivity bound per mg of cell study protein.
substance,measurement,value
EGF-^111In-labeled transferrin compound: human EGF linked to ^111In-labeled human transferrin,^111In radioactivity lost from the cells in vitro,< 8%
